Five substances from US10787485B2 (Universität Leipzig, priority 2015, dated 2020) can be followed below.

This series is described as follows: general procedure: Fmoc solid-phase peptide synthesis; Rink amide resin (loading 0.7 mmol/g); TentaGel S RAM; HOBt/DIC; HATU/DIPEA for Fmoc-NH-(PEG)2-COOH. The following applies: for final HPLC purity: RP-HPLC (two different HPLC systems).
[1] abbreviates: whole synthesis, scale of the general procedure 15 μmol.

Turning to “C-Peg-Y*-K(c[RGDfK])-Y*-Peg-G*(K(N3)-FHRRIKA-NH2)-βA-NH2”, the conjugation yield (conjugation step) was 75%.
On to C-Peg-Y*-K(c[RGDfK])-Y*-Peg-G*-βA-NH2, for which the “final HPLC purity” value (conjugation step) is over 90%.
“C-Peg-Y*-K-Y*-Peg-G*(K(N3)-FHRRIKA-NH2)-βA-NH2”: the “final HPLC purity” value (conjugation step) is on record as over 95%.
Take C-Peg-Y*-K-Y*-Peg-G*-βA-NH2: under setting [1], the “final HPLC purity” value is given as over 95%.
In the case of K(N3)-FHRRIKA-NH2, the “final HPLC purity” value under setting [1] was over 95%.
